Data as given in PMC11806408.
Results are given in words; binding and its absence hold for the method and conditions named. Some results given as binding are weak or reduced against the parent protein; the word gives no strength. For some of these results: Sequences can lack the tags named with a protein.

By UniProt entry, the sequences of proteins in these tests, tags left out. Residues count along the entry.
UniProt P37023, residues 22-118: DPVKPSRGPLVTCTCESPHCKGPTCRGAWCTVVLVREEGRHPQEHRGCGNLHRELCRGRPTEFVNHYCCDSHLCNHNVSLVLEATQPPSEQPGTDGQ

T1: BMP‐10 PD (HEK293, from the processed BMP‐10 CPLX) (human) (UniProt O95393)
T1 sequence (chain, N‐glycosylation): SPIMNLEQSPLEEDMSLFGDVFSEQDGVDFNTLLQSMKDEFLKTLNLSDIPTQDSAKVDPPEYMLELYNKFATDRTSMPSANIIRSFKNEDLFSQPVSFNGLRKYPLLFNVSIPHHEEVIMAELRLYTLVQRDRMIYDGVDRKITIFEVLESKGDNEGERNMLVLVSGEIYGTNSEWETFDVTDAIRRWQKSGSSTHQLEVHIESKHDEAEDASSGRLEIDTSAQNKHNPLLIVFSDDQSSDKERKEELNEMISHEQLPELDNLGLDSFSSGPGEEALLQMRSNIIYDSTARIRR

T2: BMPRII ectodomain, human IgG1‐Fc fusion (R&D Systems #811‐BR‐100/CF) (human) (UniProt Q13873)
T2 sequence: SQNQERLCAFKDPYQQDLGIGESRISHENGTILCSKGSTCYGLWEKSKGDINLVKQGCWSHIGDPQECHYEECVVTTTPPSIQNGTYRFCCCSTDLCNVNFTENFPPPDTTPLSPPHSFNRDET

T3: ENG ectodomain (R&D Systems #1097‐EN‐025/CF) (human) (UniProt P17813)
T3 sequence: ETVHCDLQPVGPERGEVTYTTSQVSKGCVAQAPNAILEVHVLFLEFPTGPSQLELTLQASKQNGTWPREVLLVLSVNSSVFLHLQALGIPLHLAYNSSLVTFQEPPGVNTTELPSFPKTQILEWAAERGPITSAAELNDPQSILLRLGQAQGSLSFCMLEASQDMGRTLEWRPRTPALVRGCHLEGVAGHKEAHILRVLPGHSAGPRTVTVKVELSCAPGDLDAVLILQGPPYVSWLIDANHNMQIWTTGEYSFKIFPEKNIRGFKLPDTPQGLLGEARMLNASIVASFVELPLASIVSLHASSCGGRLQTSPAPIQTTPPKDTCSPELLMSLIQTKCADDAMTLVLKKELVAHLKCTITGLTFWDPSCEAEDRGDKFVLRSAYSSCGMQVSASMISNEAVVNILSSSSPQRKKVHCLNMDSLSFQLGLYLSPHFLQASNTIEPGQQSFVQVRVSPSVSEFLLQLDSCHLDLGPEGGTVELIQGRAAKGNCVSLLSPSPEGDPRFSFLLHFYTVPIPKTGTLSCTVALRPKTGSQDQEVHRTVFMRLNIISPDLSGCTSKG

B1: BMP‐10 GF (HEK293, from the processed BMP‐10 CPLX) (ligand, UniProt O95393 317-424)
chain: NAKGNYCKRTPLYIDFKEIGWDSWIIAPPGYEAYECRGVCNYPLAEHLTPTKHAIIQALVHLKNSQKASKACCVPTKLEPISILYLDKGVVTYKFKYEGMAVSECGCR
B2: unprocessed BMP‐10 dimer (BMP‐10 I314S/R315I) (ligand, UniProt O95393 22-424)
chain: SPIMNLEQSPLEEDMSLFGDVFSEQDGVDFNTLLQSMKDEFLKTLNLSDIPTQDSAKVDPPEYMLELYNKFATDRTSMPSANIIRSFKNEDLFSQPVSFNGLRKYPLLFNVSIPHHEEVIMAELRLYTLVQRDRMIYDGVDRKITIFEVLESKGDNEGERNMLVLVSGEIYGTNSEWETFDVTDAIRRWQKSGSSTHQLEVHIESKHDEAEDASSGRLEIDTSAQNKHNPLLIVFSDDQSSDKERKEELNEMISHEQLPELDNLGLDSFSSGPGEEALLQMRSNIIYDSTARSIRNAKGNYCKRTPLYIDFKEIGWDSWIIAPPGYEAYECRGVCNYPLAEHLTPTKHAIIQALVHLKNSQKASKACCVPTKLEPISILYLDKGVVTYKFKYEGMAVSECGCR

Key:
[1] = target: T1, BMP‐10 PD (HEK293, from the processed BMP‐10 CPLX) (human); experiment: SEC; complex co-purified from conditioned medium of HEK293 cells expressing tag‐free full‐length BMP‐10: HiTrap Q twice, then Superose 12 in 1 M NaCl, 20 mM NaH2PO4, pH 7.4; fractions on SDS–PAGE
[2] = target: ALK‐1 ectodomain, human IgG1‐Fc fusion (R&D Systems #370‐AL‐100/CF) (human) (UniProt P37023); experiment: SPR; receptor ectodomains immobilised at 500 or 800 RUs on a CM5 chip by amine coupling; analytes 0 to 80 nM, 1:2 serial dilutions, 1× HBS‐EP; 1:1 model with mass transfer; apparent KD = kd/ka; three independent experiments; both purified
[3] = target: T2, BMPRII ectodomain, human IgG1‐Fc fusion (R&D Systems #811‐BR‐100/CF) (human); experiment: as above
[4] = target: T3, ENG ectodomain (R&D Systems #1097‐EN‐025/CF) (human); experiment: as above

| Binder | binding [1] | binding [2] | binding [3] | binding [4] |
| --- | --- | --- | --- | --- |
| B1 | binds | – | – | – |
| B2 | – | no binding (tested: 80 nM (highest concentration injected)) | no binding (tested: 80 nM (highest concentration injected)) | no binding (tested: 80 nM (highest concentration injected)) |
